Measurements from PubChem BioAssay AID1671190 (National Center for Advancing Translational Sciences (NCATS), 2021).
Several values for one entry are separate records, joined by “and”; a condition that tells them apart may be missing. Equal entries are not always repeated. Screen size: about 580,000 compounds; about 6,100 (1.1%) were called active. Inconclusive results, whose numbers are uncertain, are shown with a selection of clear calls. The call rests on the fitted dose curve; in most records, active means well fitted inhibition curve with a large enough effect; inconclusive means small, poorly fitted or top-dose-only effect, or another doubt; inactive means no such curve, though single readings can be large or run the other way. Where the call is inconclusive, the potency comes from a doubtful curve fit.

Amino acid sequences for entries named in this document (tags omitted). A change or cut given only in a name is not applied to a line headed by its entry.
UniProt P18054: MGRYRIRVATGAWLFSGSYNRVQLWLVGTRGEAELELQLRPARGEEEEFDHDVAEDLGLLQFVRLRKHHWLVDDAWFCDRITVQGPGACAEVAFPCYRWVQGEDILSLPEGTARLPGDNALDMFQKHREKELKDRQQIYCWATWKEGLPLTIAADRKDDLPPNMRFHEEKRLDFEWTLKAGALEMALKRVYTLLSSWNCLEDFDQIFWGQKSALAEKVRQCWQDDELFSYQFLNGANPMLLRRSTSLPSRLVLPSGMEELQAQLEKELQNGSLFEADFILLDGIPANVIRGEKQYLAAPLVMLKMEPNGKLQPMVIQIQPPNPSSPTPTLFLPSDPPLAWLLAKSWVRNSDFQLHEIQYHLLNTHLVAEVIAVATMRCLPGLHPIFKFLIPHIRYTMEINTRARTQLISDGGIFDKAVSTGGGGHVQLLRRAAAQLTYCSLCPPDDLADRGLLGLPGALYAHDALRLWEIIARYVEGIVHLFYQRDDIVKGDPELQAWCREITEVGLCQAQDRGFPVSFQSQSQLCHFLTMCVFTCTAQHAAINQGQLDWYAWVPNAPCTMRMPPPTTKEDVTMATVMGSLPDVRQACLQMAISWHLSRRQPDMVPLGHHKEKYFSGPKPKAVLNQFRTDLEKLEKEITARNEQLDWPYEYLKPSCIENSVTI

Molecular target: Polyunsaturated fatty acid lipoxygenase ALOX12 (Homo sapiens) (UniProt P18054)
Assay: Primary qHTS assay for inhibitors of human arachidonate 12S-lipoxygenase (ALOX12): Round 2
Conditions: purified 12hLO, xylenol orange hydroperoxide absorbance; activity change, negative = inhibition: at 108 µM (top of the series) unless noted
In short: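 Purified human 12hLO at 150 nM in 25 mM Hepes, 0.01% Triton X-100, pH 7.0, preincubated 15 min at room temperature with compound. Reaction started with 40 uM arachidonic acid, 30 min at room temperature. Hydroperoxide measured by Fe-xylenol orange, 573/405 nm absorbance ratio.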
On the % scale 0 is the no-effect control and ±100 the full control effect; potency means the concentration at half of the fitted maximal effect.

| SMILES | Potency | activity change, negative = inhibition |
| --- | --- | --- |
| COc1ccccc1N1CCN([C@@H]2[C@H](O)[C@H](CO)O[C@@H]2CNC(=O)c2ccc(F)c(Cl)c2)CC1 | inconclusive: 20 µM [inhibitor, full curve, poor fit] | – |
| COc1cccc(C(=O)CSc2nccn2C)c1 | inconclusive: 44.7 µM [inhibitor, partial curve, poor fit] | – |
| CCOC(=O)c1nn(-c2ccccc2C)c2nc(-c3ccc(Cl)cc3)c(C#N)c(=O)n12 | – | inactive: 16.7% |
| C[S+](=O)([O-])NC1CCN(c2nc3ncccc3o2)CC1 | inconclusive: 56.2 µM [inhibitor, partial curve] | – |
| C[C@H](O)[C@@H]1CN2CCc3c([nH]c4cccc(-c5ccccc5)c34)[C@@H]2C[C@@H]1N(C)C(=O)C1CCCCC1 | inconclusive: 35.5 µM [inhibitor, partial curve, poor fit] | – |
| O=C(NCCCNC(=O)C1CC1)C1CC1 | – | inactive: 18% |
| COC(=O)c1ccc(NCc2cc(O)ccc2O)cc1 | inconclusive: 28.2 µM [inhibitor, partial curve, poor fit] | – |
| Cc1nc2ccc(NC(=O)c3cc([N+](=O)[O-])cc([N+](=O)[O-])c3Cl)cc2s1 | inconclusive: 11.2 µM [inhibitor, full curve] | – |
| O=C(c1cccs1)N(Cc1ccccn1)C1CC1 | inconclusive: 112 µM [inhibitor, single point] | – |
| Cc1cccc(OCC(=O)Nc2cccc(O)c2)c1 | inconclusive: 63.1 µM [inhibitor, partial curve, poor fit] | – |
| COCCCNC(=O)Cc1c(C)c2c(cc(C)c3c(C(C)(C)C)coc32)oc1=O | inconclusive: 112 µM [inhibitor, single point] | – |
| COc1ccc(N=Cc2nc(-c3ccccc3)oc2OC(C)=O)cc1 | – | inactive: 170% |
| OCCN1CCN(Cc2ccc3ccccc3c2)CC1 | inconclusive: 0.794 µM [inhibitor, full curve] | – |
| Cc1ccc(C(=O)Nc2ccc(N3CCOCC3)c3nonc23)cc1[N+](=O)[O-] | inconclusive: 2.82 µM [inhibitor, full curve, poor fit] | – |
| COc1ccccc1NC(=O)Cn1nc(-c2ccc(C)c(S(=O)(=O)N3CCOCC3)c2)ccc1=O | inconclusive: 89.1 µM [inhibitor, single point] | – |
| CCCNc1nc2ccccc2nc1C(=O)Nc1cc(C)ccc1OC | – | inactive: -35.5% |
| COc1cccc(N2CCN(C(=O)/C=C/c3ccco3)CC2)c1 | inconclusive: 44.7 µM [inhibitor, partial curve, poor fit] | – |
| CCc1ccc(S(=O)(=O)c2cnc3ccc(C)cc3c2N2CCOCC2)cc1 | inconclusive: 3.98 µM [inhibitor, full curve, poor fit] | – |
| O=C(NCc1ccco1)c1cc2ccccc2oc1=O | – | inactive: -11.6% |
| CCc1noc(-c2cn(C3CCN(C(=O)c4ccc(Cl)s4)CC3)nn2)n1 | – | inactive: 24.5% |
| CNCc1nccs1 | inconclusive: 0.92 µM [inhibitor, full curve] | – |
| CC1=CC(c2ccccc2)n2nc(NC(=O)CCCC(=O)O)nc2N1 (stereo not given) | inconclusive: 3.98 µM [inhibitor, full curve, poor fit] | – |

| SMILES | Potency | activity change, negative = inhibition |
| --- | --- | --- |
| O=C(CSc1ccccc1)Nc1ccc(S(=O)(=O)NCC2CCCO2)cc1 (stereo not given) | inconclusive: 89.1 µM [inhibitor, partial curve, poor fit] | – |
| O=C(Cc1n[nH]c(=O)c2ccccc12)Nc1ccc(F)cc1 | inconclusive: 141 µM [inhibitor, partial curve, poor fit] | – |
| CNC(=O)c1ccc(Nc2cc(Nc3ccccc3S(=O)(=O)C(C)C)c3cc[nH]c3n2)nc1 | active: 0.968 µM | – |
| CCOc1ccc(CNC(=O)Cn2nc(C)c3nn(-c4ccc(Cl)cc4)c(C)c3c2=O)cc1 | – | inactive: -29% |
| COc1ccc(N2CCN(C(=O)C(C)(C)Oc3ccc(Cl)cc3)CC2)cc1 | – | inactive: -58.3% |
| O=C(CCc1ccnc(N2CCOCC2)c1)NCCN1CCc2ccccc2C1 | – | inactive: 79% |
| COc1cc(-c2ccno2)ccc1S(=O)(=O)N1CCN(c2cccc(Cl)c2)CC1 | inconclusive: 141 µM [inhibitor, partial curve, poor fit] | – |
| O=c1[nH]c(=O)n([C@H]2C[C@@H](O)[C@@H](CO)O2)cc1F | – | inactive: -11.1% [at 57.4 µM] |
| Cc1cc(NC(=S)NCCc2ccccc2)ccc1I | inconclusive: 35.5 µM [inhibitor, partial curve, poor fit] | – |
| COc1ccc2cc(C3CN(C(=O)Cc4ccc(O)cc4)CCO3)ccc2c1 (stereo not given) | – | inactive: -4.25% |
| CC(C)OC(=O)c1cc(NC(=O)C2C3CCC(O3)C2C(=O)O)cc(C(=O)OC(C)C)c1 (stereo not given) | inconclusive: 25.1 µM [inhibitor, partial curve, poor fit] | – |
| Cc1cccc(C(=O)NC(=S)N2CCN(c3ccc([N+](=O)[O-])cc3)CC2)c1 | inconclusive: 20 µM [inhibitor, full curve, poor fit] | – |
| CN(C)CCCN1C(=O)c2oc3ccc(F)cc3c(=O)c2C1c1cccnc1 (stereo not given) | inconclusive: 31.6 µM [inhibitor, partial curve, poor fit] | – |
| O=C(O)CCCOc1ccc(Br)cc1 | – | inactive: 1.62% |
| COc1cc(C(C2C(=O)CC(C)(C)CC2=O)C2C(=O)CC(C)(C)CC2=O)ccc1OC(C)=O | inconclusive: 100 µM [inhibitor, partial curve, poor fit] | – |
| O=C(NCCn1nc(-c2ccccc2)ccc1=O)C1NCCc2[nH]cnc21 (stereo not given) | – | inactive: 109% |
| CCOc1ccccc1/C=C/c1nc2ccccc2[nH]c1=O | inconclusive: 44.7 µM [inhibitor, partial curve, poor fit] | – |
| Cc1ccc2c(CC(=O)N3CCN(c4cccc(Cl)c4)CC3)coc2c1 | inconclusive: 79.4 µM [inhibitor, partial curve, poor fit] | – |
| Cc1cccc(NC(=O)c2ccc3ccccc3n2)c1C | inconclusive: 14.1 µM [inhibitor, partial curve, poor fit] | – |
| Oc1ccc2[nH]cc(CCNC(c3ccccc3)(c3ccccc3)c3ccccc3)c2c1 | inconclusive: 22.4 µM [inhibitor, full curve, poor fit] | – |
| COc1cc2nc(N(CCCN(C)C)C(=O)c3ccc(C(=O)c4ccccc4)cc3)sc2cc1OC | inconclusive: 112 µM [inhibitor, partial curve, poor fit] | – |
| Cc1cc(C(=O)OC(C)C(=O)Nc2ccc(Cl)cc2Cl)c(C)o1 (stereo not given) | inconclusive: 39.8 µM [inhibitor, partial curve, poor fit] | – |

Part of the list above, set out differently:
SMILES | Potency | activity change, negative = inhibition
C[C@H](O)[C@@H]1CN2CCc3c([nH]c4cccc(-c5ccccc5)c34)[C@@H]2C[C@@H]1N(C)C(=O)C1CCCCC1 | inconclusive: 35.5 µM [inhibitor, partial curve, poor fit] | –
Cc1cccc(OCC(=O)Nc2cccc(O)c2)c1 | inconclusive: 63.1 µM [inhibitor, partial curve, poor fit] | –
CN(C)CCCN1C(=O)c2oc3ccc(F)cc3c(=O)c2C1c1cccnc1 (stereo not given) | inconclusive: 31.6 µM [inhibitor, partial curve, poor fit] | –
CCOc1ccccc1/C=C/c1nc2ccccc2[nH]c1=O | inconclusive: 44.7 µM [inhibitor, partial curve, poor fit] | –
COc1cc2nc(N(CCCN(C)C)C(=O)c3ccc(C(=O)c4ccccc4)cc3)sc2cc1OC | inconclusive: 112 µM [inhibitor, partial curve, poor fit] | –

More compounds follow:

| SMILES | Potency | activity change, negative = inhibition |
| --- | --- | --- |
| CCCN(CCC)C1=CC(=[N+]2CCCC2)CC(C)(C)C1 | inconclusive: 50.1 µM [inhibitor, partial curve, poor fit] | – |
| COc1ccc2cc(C(=O)/C=C/c3cccs3)ccc2c1 | – | inactive: -16.4% |
| CNc1ncnc2ccc(-c3ccccc3CN(C)C)cc12 | inconclusive: 5.62 µM [inhibitor, full curve, poor fit] | – |
| CN1C[C@@H]2[C@@H]3C(=O)N(C)C(=O)[C@@H]3[C@](C)(C1=O)N2C(=O)c1ccc(C(F)(F)F)cc1 | inconclusive: 31.6 µM [inhibitor, single point] | – |
| CCS(=O)(=O)N1CCN(C2CCC(C)CC2)CC1 (stereo not given) | inconclusive: 0.316 µM [inhibitor, full curve, poor fit] | – |
| Cc1cc(C)cc(NC(=O)Cn2nnc(C(=O)NCCc3ccccc3)c2N)c1 | inconclusive: 126 µM [inhibitor, single point] | – |
| Nc1nc2c(ncn2[C@@H]2O[C@H](C(=O)N[C@H](Cc3ccccc3)C(=O)NCc3ccc4c(c3)OCO4)[C@@H](O)[C@H]2O)c(=O)[nH]1 | – | inactive: -2.8% |
| CCOC(=O)c1c(C)[nH]c(C(=O)COc2ccc3c(c2)OCO3)c1C | inconclusive: 44.7 µM [inhibitor, partial curve, poor fit] | – |
| O=C(O)C/C(=C/c1ccc(-c2ccccc2)cc1)c1nc2ccccc2s1 | inconclusive: 50.1 µM [inhibitor, partial curve, poor fit] | – |
| CC(=O)NS(=O)(=O)c1ccc(NC(=S)Nc2ccccc2)cc1 | – | inactive: 14.9% |
| CN(C)c1cc[n+](CC(=O)N2CCCc3ccccc32)cc1 | inconclusive: 89.1 µM [inhibitor, partial curve, poor fit] | – |
| COc1ncccc1-c1nnn(-c2ccccc2)n1 | – | inactive: -20.3% |
| O=C(Nc1nc2c(s1)CCc1ccccc1-2)c1ccco1 | inconclusive: 100 µM [inhibitor, partial curve, poor fit] | – |
| O=C(OCn1nnc2ccccc2c1=O)c1cccnc1 | inconclusive: 100 µM [inhibitor, partial curve, poor fit] | – |
| OCC(CO)(CO)N=Cc1c(O)ccc2ccccc12 | – | inactive: -29.3% |
| CC(C)N(CCNC(=O)CCc1ncc(-c2ccc(Cl)cc2)o1)C(C)C | – | inactive: 19.3% |
| CCOc1ccc(/C=C/C(=O)c2ccc(Br)cc2)cc1OC | inconclusive: 8.91 µM [inhibitor, full curve] | – |
| CN(C)CCCSC(=N)N | inconclusive: 44.7 µM [inhibitor, partial curve, poor fit] and inconclusive: 89.1 µM [inhibitor, single point] | – |
| O=[N+]([O-])c1cccc2nc(/C=C/c3ccccc3OC(F)F)ccc12 | inconclusive: 1.78 µM [inhibitor, full curve, poor fit] | – |
| Cn1cnc2c1c(=O)n(CC(=O)OCCOc1ccccc1)c(=O)n2C | inconclusive: 100 µM [inhibitor, partial curve, poor fit] | – |
| COc1ccc(NC(=O)Nc2ccc(C)cc2Br)c(OC)c1 | inconclusive: 35.5 µM [inhibitor, single point] | – |
